Experimental data published in article PMC8037086.
Results are given in words; binding and its absence hold for the method and conditions named.

Assays:
[1] = target: Aha1's C-terminal domain (Aha1^204−335) (human) (UniProt O95433); test: NMR titration; 1H-15N-HSQC of 15N-labeled Aha1^28−162 or 15N-labeled Aha1^204−335 without or with equal molar of the unlabeled other domain; 20 mM Tris/HCl, 150 mM KCl, 0.5 mM EDTA, 5 mM β-mercaptoethanol, 10% D2O, pH 7.5; 25 °C; both purified
[2] = target: Aha1's N-terminal domain (Aha1^28−162) (human) (UniProt O95433); test: as above

Substance | binding [1] | binding [2]
Aha1's N-terminal domain (Aha1^28−162) (from UniProt O95433-1 28-162) (domain or fragment) | no binding (tested: equal molar of unlabeled Aha1^28−162) | –
Aha1's C-terminal domain (Aha1^204−335) (from UniProt O95433-1 204-335) (domain or fragment) | – | no binding (tested: equal molar of unlabeled Aha1^204−335)
